In publication PMC6249555 one finds binding data, which are given here for five molecules.

Protein sequences, listed by entry. Tags and fused reporters are not part of them. Residues count along the entry.
UniProt P55064: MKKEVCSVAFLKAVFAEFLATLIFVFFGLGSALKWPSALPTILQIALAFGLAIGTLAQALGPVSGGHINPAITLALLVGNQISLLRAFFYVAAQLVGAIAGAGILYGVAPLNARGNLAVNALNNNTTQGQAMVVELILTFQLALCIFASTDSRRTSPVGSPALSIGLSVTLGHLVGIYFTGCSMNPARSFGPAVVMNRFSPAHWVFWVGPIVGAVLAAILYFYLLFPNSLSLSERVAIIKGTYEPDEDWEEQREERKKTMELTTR
UniProt Q9WTY4: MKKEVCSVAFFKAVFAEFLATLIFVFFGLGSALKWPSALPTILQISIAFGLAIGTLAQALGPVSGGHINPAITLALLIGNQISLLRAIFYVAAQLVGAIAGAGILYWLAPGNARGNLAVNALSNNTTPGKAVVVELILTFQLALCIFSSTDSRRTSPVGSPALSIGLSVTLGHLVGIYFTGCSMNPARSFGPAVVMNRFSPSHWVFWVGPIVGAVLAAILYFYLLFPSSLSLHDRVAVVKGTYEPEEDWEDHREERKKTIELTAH
UniProt O43570, residues 25-354: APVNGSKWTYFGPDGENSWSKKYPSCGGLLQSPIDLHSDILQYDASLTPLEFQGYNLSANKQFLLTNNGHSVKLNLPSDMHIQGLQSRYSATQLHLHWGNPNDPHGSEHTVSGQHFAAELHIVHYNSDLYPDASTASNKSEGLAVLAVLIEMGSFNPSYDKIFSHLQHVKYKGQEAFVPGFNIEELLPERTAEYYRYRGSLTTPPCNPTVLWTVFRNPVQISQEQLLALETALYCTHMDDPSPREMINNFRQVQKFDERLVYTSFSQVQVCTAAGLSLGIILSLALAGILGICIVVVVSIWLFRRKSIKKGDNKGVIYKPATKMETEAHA

These are yes or no findings as the source states them, for the method shown. Binding seen in cells or lysates may run through a third protein. Some binding calls cover weakened binding; strength is not graded here. For some assays here: Tags and fused reporters may be left off the sequences shown.

For experiment [1], the target named is GFP-tagged human AQP5 (human) (UniProt P55064). As to the kind of experiment: co-IP; immunoprecipitation assay; no figure cited; cells and constructs not named.
The target is the same in experiment [2]. As to the kind of experiment: co-IP; lysate of transfected HEK293T cells (20 mM Tris, 150 mM NaCl, 2 mM EDTA, 1% Triton X-100); 1 ug/mL of the indicated antibodies at 4 °C for 16 h, protein G plus agarose beads for 4 h, washed thrice with lysis buffer.
Experiment [3] has as its target AQP5, native, in isolated mouse submandibular gland (SMG) cells (mouse (endogenous in SMG cells)) (UniProt Q9WTY4). Kind of experiment: co-IP; isolated mouse submandibular gland (SMG) cells, native proteins; which protein was precipitated is not given.

As to “mKate-human CA12 wild type (from UniProt O43570 25-354) (enzyme)”, in experiment [1], the binding result is “no binding”.

B1: HA-rabbit AE2 (protein, UniProt P48746 1-1237)
chain: MSSAPRRPASGADSFRTPEPESLGPGTPGFPEQEEDELHRTLGVERFEEILQEAGSRGGEEPGRSYGEEDFEYHRQSSHHIHHPLSTHLPPDARRRKTPQGPGRKPRRRPGASPTGATPTIEEGEEDEEEANEAEGARAPTEPSPASTPSSVQFFLQEDEGAERKAERTSPSPPTLLPHQEAAPWATEGAQTGVPVEEVAVVASGTAGGDNGGASGRPLTKAQPGHRSYNLQERRRIGSMTGAEQALLPRVPTDESEAQTLATADLDLMKSHRFEDVPGVRRHLVRKNAKGSAQSSREGREPGPTPRSRPRAPHKPHEVFVELNELLLDKNQEPQWRETARWIKFEEDVEEETERWGKPHVASLSFRSLLELRRTLAHGAVLLDLDQQTLPGVAHQVVEQMVISDQIKAEDRANVLRALLLKHSHPSDEKDFSFPRNISAGSLGSLLGHHHGQGAESDPHVTEPLIGGIPETRLDVERERDVPPSAPPAGITRSKSKHELKLLEKIPENAEATVVLVGCVEFLSRPTMAFVRLREAVELDAVLEVPVPVRFLFLLLGPSSANMDYHEIGRSISTLMSDKQFHEAAYLADEREDLLTAINAFLDCSVVLPPSEVQGEELLRSVAHFQRQMLKKREEQGRLLPPGLGLEPKSAQDKALLQMVEAAGAAEDDPLRRTGRPFGGLIRDVRRRYPHYLSDFRDALDPQCVAAVIFIYFAALSPAITFGGLLGEKTQDLIGVSELIMSTALQGVIFCLLGAQPLLVIGFSGPLLVFEEAFFTFCSSNQLEYLVGRVWIGFWLVLLALLMVALEGSFLVRFVSRFTQEIFAFLISLIFIYETFYKLIKIFQEHPLHGCSVSNSSETDSSENATWAGAGSTLGPANRSSAGQAGQGRPRGQPNTALLSLVLMAGTFFIAFFLRKFKNSRFFPGRIRRVIGDFGVPIAILIMVLVDYSIEDTYTQKLSVPSGFSVTAPDKRGWVINPLGEKSPFPVWMMVASLLPAILVFILIFMETQITTLIISKKERMLQKGSGFHLDLLLIVAMGGICALFGLPWLAAATVRSVTHANALTVMSKAVAPGDKPKIQEVKEQRVTGLLVALLVGLSIVIGDLLRQIPLAVLFGIFLYMGVTSLNGIQFYERLHLLLMPPKHHPDVTYVKKVRTLRMHLFTALQLLCLALLWAVMSTAASLAFPFILILTVPLRMVVLTRIFTEREMKCLDANEAEPVFDEREGVDEYNEMPMPV
As to B1, the binding result in experiment [2] is recorded as “binds”.

B2: AE2, native, in isolated mouse submandibular gland (SMG) cells (protein, UniProt P13808 1-1237)
chain: MSSAPRRPASGADSLHTPEPESLSPGTPGFPEQEEDELRTLGVERFEEILQEAGSRGGEEPGRSYGEEDFEYHRQSSHHIHHPLSTHLPPDARRRKTPQGPGRKPRRRPGASPTGETPTIEEGEEDEEEASEAEGFRAPPQQPSPATTPSAVQFFLQEDEGAERKPERTSPSPPTQTPHQEAAPRASKGAQTGTLVEEMVAVASATAGGDDGGAAGRPLTKAQPGHRSYNLQERRRIGSMTGVEQALLPRVPTDESEAQTLATADLDLMKSHRFEDVPGVRRHLVRKNAKGSTQAAREGREPGPTPRARPRAPHKPHEVFVELNELLLDKNQEPQWRETARWIKFEEDVEEETERWGKPHVASLSFRSLLELRRTLAHGAVLLDLDQQTLPGVAHQVVEQMVISDQIKAEDRANVLRALLLKHSHPSDEKEFSFPRNISAGSLGSLLGHHHAQGTESDPHVTEPLIGGVPETRLEVDRERELPPPAPPAGITRSKSKHELKLLEKIPENAEATVVLVGCVEFLSRPTMAFVRLREAVELDAVLEVPVPVRFLFLLLGPSSANMDYHEIGRSISTLMSDKQFHEAAYLADERDDLLTAINAFLDCSVVLPPSEVQGEELLRSVAHFQRQMLKKREEQGRLLPPGAGLEPKSAQDKALLQMVEVAGAAEDDPLRRTGRPFGGLIRDVRRRYPHYLSDFRDALDPQCLAAVIFIYFAALSPAITFGGLLGEKTKDLIGVSELIMSTALQGVVFCLLGAQPLLVIGFSGPLLVFEEAFFSFCSSNELEYLVGRVWIGFWLVFLALLMVALEGSFLVRFVSRFTQEIFAFLISLIFIYETFYKLIKIFQEHPLHGCSGSNDSEAGSSSSSNMTWATTILVPDNSSASGQSGQEKPRGQPNTALLSLVLMAGTFFIAFFLRKFKNSRFFPGRIRRVIGDFGVPIAILIMVLVDYSIEDTYTQKLSVPSGFSVTAPDKRGWVINPLGEKTPFPVWMMVASLLPAVLVFILIFMETQITTLIISKKERMLQKGSGFHLDLLLIVAMGGICALFGLPWLAAATVRSVTHANALTVMSKAVAPGDKPKIQEVKEQRVTGLLVALLVGLSMVIGDLLRQIPLAVLFGIFLYMGVTSLNGIQFYERLHLLLMPPKHHPDVTYVKKVRTMRMHLFTALQLLCLALLWAVMSTAASLAFPFILILTVPLRMVVLTRIFTEREMKCLDANEAEPVFDECEGVDEYNEMPMPV
Take B2: the binding entry in experiment [3] is recorded as “binds”.

B3: NKCC1, native, in mouse submandibular gland (SMG) (protein, UniProt P55012 1-1205)
chain: MEPGPARPRLAPAARPGWGRAAGCRRRGGPARHGRASGQEDATTAGRQAGGGVRGEGTPAAGDGLGRPLGPTPSQSRFQVDPVSENAGRAAAAAAAAAAAAAAAGAAGKETPAAGKAGGESGVAKGSEEAKGRFRVNFVDPAASSSADDSLSDAAGVGGDGPNVSFQNGGDTVLSEGSSLHSGGGSGHHQQYYYDTHTNTYYLRTFGHNTMDAVPRIDHYRHTAAQLGEKLLRPSLAELHDELEKEPFEDGFANGEESTPTRDAVVAYTAESKGVVKFGWIKGVLVRCMLNIWGVMLFIRLSWIVGQAGIGLSVVVIAMATVVTTITGLSTSAIATNGFVRGGGAYYLISRSLGPEFGGAIGLIFAFANAVAVAMYVVGFAETVVELLKEHSILMIDEINDIRIIGAITVVILLGISVAGMEWEAKAQIVLLVILLLAIADFVIGTFISLESKKPKGFFGYKSEIFNENFGPDFREEETFFSVFAIFFPAATGILAGANISGDLADPQSAIPKGTLLAILITTVVYIGIAVSVGSCVVRDATGNVNDTITTELTNCTSAACKLNFDFSYCESNTCSYGLMNNFQVMSMVSGFAPLISAGIFSATLSSALASLVSAPKIFQALCKDNIYPAFQMFAKGYGKNNEPLRGYILTFLIALGFILIAELNVIAPIISNFFLASYALINFSVFHASLAKSPGWRPAFKYYNMWISLIGAILCCIVMFVINWWAALLTYVIVLGLYIYVTYKKPDVNWGSSTQALTYLSALQHSIRLSGVEDHVKNFRPQCLVMTGSPNSRPALLHLVHDFTKNVGLMICGHVHMGPRRQAMKEMSIDQARYQRWLIKNKMKAFYAPVHADDLREGAQYLMQAAGLGRMKPNTLVLGFKKDWLQADMRDVDMYINLFHDAFDIQFGVVVIRLKEGLDISHLQGQEELLSSQEKSPGTKDVVVNVDYSKKSDQDTCKSSGEKSITQKDEEEDGKTPTQPLLKKESKGPIVPLNVADQKLLEASTQFQKKQGKNTIDVWWLFDDGGLTLLIPYLLTTKKKWKDCKIRVFIGGKINRIDHDRRAMATLLSKFRIDFSDIMVLGDINTKPKKENIIAFDDMIEPYRLHEDDKEQDIADKMKEDEPWRITDNELELYKTKTYRQIRLNELLKEHSSTANIIVMSLPVARKGAVSSALYMAWLEALSKDLPPVLLVRGNHQSVLTFYS
As to B3, the binding result in experiment [3] is on record as “binds”.

B4: human NKCC1 (pcDNA3.0-human NKCC1) (protein, UniProt P55011 1-1212)
chain: MEPRPTAPSSGAPGLAGVGETPSAAALAAARVELPGTAVPSVPEDAAPASRDGGGVRDEGPAAAGDGLGRPLGPTPSQSRFQVDLVSENAGRAAAAAAAAAAAAAAAGAGAGAKQTPADGEASGESEPAKGSEEAKGRFRVNFVDPAASSSAEDSLSDAAGVGVDGPNVSFQNGGDTVLSEGSSLHSGGGGGSGHHQHYYYDTHTNTYYLRTFGHNTMDAVPRIDHYRHTAAQLGEKLLRPSLAELHDELEKEPFEDGFANGEESTPTRDAVVTYTAESKGVVKFGWIKGVLVRCMLNIWGVMLFIRLSWIVGQAGIGLSVLVIMMATVVTTITGLSTSAIATNGFVRGGGAYYLISRSLGPEFGGAIGLIFAFANAVAVAMYVVGFAETVVELLKEHSILMIDEINDIRIIGAITVVILLGISVAGMEWEAKAQIVLLVILLLAIGDFVIGTFIPLESKKPKGFFGYKSEIFNENFGPDFREEETFFSVFAIFFPAATGILAGANISGDLADPQSAIPKGTLLAILITTLVYVGIAVSVGSCVVRDATGNVNDTIVTELTNCTSAACKLNFDFSSCESSPCSYGLMNNFQVMSMVSGFTPLISAGIFSATLSSALASLVSAPKIFQALCKDNIYPAFQMFAKGYGKNNEPLRGYILTFLIALGFILIAELNVIAPIISNFFLASYALINFSVFHASLAKSPGWRPAFKYYNMWISLLGAILCCIVMFVINWWAALLTYVIVLGLYIYVTYKKPDVNWGSSTQALTYLNALQHSIRLSGVEDHVKNFRPQCLVMTGAPNSRPALLHLVHDFTKNVGLMICGHVHMGPRRQAMKEMSIDQAKYQRWLIKNKMKAFYAPVHADDLREGAQYLMQAAGLGRMKPNTLVLGFKKDWLQADMRDVDMYINLFHDAFDIQYGVVVIRLKEGLDISHLQGQEELLSSQEKSPGTKDVVVSVEYSKKSDLDTSKPLSEKPITHKVEEEDGKTATQPLLKKESKGPIVPLNVADQKLLEASTQFQKKQGKNTIDVWWLFDDGGLTLLIPYLLTTKKKWKDCKIRVFIGGKINRIDHDRRAMATLLSKFRIDFSDIMVLGDINTKPKKENIIAFEEIIEPYRLHEDDKEQDIADKMKEDEPWRITDNELELYKTKTYRQIRLNELLKEHSSTANIIVMSLPVARKGAVSSALYMAWLEALSKDLPPILLVRGNHQSVLTFYS
Turning to B4, the binding entry in experiment [2] is “binds”.
